This is one part of the list.
Tests used:
Experiment in all cases: log2 fold change, soluble protein after heating vs DMSO (PISA); higher = thermal stabilisation; K562 lysate, 10 uM; active = over 0.2 and 3.5 SD of the protein, either way, in both replicates (recomputed)
alvocidib = compound: CN1CC[C@H](c2c(O)cc(O)c3c(=O)cc(-c4ccccc4Cl)oc23)[C@H](O)C1 [alvocidib]
Summary of the method: (§1)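 K562 pellets were dounce-homogenised in PBS pH 7.4 with 1 mM MgCl2, and the crude extract at 1 mg/mL protein was treated with 10 μM compound for 30 min. Aliquots were heated for 3 min across 48°C-58°C, pooled, and brought to 0.5% NP-40 at 4°C; soluble protein was the supernatant after 21,000xg for 90 min. Soluble protein was quantified by TMTpro 16plex LC-MS/MS with channel sums equalised, and reported as log2 fold change in thermal stability against DMSO controls, with values from duplicates.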

Protein sequences, listed by entry. Tags and fused reporters are not part of them. Lines headed by an entry give the natural chain unless they say otherwise; changes in a name come on top.
UniProt Q6PIW4: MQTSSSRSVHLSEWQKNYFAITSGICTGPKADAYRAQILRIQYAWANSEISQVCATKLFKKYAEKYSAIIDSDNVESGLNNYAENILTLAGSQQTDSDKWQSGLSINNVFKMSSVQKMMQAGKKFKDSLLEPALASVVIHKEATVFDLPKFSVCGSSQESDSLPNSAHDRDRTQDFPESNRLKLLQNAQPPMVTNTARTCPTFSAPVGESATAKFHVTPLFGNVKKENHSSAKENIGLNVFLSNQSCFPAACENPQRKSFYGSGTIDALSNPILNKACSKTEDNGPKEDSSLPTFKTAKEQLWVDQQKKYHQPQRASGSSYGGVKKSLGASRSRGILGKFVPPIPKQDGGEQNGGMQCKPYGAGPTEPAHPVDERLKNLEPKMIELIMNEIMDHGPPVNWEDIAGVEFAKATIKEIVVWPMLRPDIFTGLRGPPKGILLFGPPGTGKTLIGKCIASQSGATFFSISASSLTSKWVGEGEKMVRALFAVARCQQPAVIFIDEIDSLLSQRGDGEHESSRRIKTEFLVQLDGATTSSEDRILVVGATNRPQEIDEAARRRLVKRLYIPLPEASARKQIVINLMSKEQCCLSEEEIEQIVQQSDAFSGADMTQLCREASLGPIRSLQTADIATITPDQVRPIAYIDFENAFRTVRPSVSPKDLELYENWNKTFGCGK
UniProt Q8NEZ5: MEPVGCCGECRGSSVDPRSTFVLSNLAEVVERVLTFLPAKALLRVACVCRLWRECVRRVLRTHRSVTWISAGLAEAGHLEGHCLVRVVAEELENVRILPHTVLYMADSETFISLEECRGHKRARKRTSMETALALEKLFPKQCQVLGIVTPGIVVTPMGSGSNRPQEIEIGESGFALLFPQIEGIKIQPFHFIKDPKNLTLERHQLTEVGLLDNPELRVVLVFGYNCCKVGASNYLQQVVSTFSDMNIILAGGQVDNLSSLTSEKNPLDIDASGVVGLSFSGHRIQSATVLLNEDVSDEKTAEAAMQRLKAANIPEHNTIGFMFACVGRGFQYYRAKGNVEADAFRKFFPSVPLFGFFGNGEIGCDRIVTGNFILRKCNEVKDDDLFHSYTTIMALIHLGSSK
UniProt Q9UK73, whole entry, looked up: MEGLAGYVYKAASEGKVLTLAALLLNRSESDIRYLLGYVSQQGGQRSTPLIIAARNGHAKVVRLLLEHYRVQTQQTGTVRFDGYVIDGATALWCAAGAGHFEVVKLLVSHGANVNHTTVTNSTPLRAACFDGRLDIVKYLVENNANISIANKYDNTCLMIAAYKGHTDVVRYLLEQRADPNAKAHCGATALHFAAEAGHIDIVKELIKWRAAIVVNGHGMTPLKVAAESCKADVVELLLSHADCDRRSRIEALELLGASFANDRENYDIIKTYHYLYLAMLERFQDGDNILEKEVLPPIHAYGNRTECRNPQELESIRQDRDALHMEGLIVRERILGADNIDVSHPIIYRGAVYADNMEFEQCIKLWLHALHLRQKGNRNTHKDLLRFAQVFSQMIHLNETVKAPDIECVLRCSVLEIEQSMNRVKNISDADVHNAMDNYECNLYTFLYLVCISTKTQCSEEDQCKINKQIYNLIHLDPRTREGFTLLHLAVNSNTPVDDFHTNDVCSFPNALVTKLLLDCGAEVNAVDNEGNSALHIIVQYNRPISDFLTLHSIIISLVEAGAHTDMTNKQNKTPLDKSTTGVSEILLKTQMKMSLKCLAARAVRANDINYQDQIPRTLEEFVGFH
UniProt P02751, whole entry, looked up: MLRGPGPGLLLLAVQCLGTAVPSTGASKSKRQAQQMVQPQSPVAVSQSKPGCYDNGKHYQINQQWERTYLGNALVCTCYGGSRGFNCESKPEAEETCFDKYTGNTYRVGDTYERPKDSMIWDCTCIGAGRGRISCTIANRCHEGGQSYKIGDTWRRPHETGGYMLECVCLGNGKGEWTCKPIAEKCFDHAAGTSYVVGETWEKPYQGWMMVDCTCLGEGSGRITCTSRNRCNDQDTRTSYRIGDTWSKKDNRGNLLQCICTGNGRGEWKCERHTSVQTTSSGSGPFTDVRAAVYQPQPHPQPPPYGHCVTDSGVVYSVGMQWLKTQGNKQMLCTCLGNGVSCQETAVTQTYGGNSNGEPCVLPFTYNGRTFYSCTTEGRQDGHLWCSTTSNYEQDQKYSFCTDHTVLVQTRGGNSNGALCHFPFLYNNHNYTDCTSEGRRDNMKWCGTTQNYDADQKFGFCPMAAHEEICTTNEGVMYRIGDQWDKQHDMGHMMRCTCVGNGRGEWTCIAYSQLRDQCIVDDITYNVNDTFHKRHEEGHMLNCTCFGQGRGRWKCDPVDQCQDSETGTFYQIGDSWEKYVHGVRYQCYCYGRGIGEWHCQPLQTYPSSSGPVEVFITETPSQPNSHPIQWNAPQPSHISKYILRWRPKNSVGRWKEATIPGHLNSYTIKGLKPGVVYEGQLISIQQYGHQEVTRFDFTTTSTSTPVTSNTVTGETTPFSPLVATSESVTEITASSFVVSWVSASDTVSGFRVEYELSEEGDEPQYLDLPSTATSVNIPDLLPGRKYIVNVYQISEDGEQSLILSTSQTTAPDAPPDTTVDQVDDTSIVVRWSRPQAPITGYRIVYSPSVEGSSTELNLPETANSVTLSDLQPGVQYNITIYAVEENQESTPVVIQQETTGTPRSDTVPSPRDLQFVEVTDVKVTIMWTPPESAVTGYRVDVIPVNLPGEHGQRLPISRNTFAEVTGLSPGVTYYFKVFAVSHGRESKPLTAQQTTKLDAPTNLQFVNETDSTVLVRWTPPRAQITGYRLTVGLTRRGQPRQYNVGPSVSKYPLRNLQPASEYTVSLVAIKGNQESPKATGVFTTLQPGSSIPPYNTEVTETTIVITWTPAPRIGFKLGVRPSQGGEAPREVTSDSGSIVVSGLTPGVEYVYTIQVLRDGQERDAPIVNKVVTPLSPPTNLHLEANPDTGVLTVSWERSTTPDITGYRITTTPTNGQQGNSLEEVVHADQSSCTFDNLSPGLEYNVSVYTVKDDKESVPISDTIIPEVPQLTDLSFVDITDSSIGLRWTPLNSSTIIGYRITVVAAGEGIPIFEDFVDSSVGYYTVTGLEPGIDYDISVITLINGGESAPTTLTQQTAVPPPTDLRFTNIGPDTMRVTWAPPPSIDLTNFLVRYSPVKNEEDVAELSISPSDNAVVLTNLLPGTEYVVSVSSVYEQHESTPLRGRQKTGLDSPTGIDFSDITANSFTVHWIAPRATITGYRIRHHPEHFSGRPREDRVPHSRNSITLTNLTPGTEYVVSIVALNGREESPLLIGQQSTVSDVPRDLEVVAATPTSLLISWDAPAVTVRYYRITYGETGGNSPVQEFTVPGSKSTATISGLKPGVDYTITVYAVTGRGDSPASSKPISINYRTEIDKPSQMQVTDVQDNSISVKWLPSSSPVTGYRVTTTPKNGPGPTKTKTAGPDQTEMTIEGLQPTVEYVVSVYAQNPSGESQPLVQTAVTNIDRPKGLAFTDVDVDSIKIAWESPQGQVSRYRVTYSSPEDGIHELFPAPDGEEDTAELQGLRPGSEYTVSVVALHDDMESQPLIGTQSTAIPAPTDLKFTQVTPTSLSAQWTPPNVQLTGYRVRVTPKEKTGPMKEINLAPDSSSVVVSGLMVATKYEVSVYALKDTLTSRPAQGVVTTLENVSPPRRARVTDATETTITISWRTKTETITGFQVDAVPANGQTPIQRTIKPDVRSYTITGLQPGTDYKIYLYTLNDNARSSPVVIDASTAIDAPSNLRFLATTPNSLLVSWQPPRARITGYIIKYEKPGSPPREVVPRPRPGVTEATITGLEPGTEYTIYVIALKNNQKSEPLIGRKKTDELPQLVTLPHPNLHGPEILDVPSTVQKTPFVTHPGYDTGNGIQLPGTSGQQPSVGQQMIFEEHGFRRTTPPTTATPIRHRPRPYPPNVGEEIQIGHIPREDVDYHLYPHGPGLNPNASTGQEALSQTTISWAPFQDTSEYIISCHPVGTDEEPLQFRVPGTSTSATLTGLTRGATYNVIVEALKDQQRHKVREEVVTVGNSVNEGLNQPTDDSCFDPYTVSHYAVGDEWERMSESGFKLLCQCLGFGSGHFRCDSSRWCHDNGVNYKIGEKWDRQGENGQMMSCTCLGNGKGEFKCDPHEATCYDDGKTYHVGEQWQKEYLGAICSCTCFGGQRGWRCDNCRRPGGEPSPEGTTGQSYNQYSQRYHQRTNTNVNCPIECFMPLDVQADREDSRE
UniProt Q02790: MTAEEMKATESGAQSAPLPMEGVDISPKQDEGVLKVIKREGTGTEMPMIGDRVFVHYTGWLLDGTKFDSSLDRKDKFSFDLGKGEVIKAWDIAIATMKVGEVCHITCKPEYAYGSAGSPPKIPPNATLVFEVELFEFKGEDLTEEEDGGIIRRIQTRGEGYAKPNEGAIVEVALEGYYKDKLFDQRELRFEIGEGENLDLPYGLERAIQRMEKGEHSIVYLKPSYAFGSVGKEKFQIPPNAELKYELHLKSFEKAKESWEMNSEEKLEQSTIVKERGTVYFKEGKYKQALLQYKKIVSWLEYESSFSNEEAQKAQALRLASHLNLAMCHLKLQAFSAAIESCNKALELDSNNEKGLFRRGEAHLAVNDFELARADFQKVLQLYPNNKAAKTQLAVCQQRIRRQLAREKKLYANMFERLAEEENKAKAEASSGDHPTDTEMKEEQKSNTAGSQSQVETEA
UniProt Q9NYY8: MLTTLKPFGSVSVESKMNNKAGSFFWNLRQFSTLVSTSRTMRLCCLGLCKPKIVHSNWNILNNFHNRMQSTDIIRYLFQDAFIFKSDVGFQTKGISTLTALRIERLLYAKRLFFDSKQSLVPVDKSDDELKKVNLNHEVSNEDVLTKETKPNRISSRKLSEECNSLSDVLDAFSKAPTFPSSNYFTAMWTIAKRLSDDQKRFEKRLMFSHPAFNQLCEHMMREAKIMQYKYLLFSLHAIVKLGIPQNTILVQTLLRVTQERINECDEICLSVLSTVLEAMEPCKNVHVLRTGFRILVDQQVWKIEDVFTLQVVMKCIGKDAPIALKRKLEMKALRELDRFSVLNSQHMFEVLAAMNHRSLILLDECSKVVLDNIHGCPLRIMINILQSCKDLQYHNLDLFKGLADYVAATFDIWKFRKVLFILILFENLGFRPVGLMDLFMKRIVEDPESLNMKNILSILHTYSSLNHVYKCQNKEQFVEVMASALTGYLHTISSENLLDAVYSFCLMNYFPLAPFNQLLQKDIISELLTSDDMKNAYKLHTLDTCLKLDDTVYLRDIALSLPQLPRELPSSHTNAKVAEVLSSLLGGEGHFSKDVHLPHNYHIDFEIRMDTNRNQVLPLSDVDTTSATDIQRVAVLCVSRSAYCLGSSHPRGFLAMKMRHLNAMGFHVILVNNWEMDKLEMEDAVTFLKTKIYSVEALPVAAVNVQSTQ
UniProt O94887: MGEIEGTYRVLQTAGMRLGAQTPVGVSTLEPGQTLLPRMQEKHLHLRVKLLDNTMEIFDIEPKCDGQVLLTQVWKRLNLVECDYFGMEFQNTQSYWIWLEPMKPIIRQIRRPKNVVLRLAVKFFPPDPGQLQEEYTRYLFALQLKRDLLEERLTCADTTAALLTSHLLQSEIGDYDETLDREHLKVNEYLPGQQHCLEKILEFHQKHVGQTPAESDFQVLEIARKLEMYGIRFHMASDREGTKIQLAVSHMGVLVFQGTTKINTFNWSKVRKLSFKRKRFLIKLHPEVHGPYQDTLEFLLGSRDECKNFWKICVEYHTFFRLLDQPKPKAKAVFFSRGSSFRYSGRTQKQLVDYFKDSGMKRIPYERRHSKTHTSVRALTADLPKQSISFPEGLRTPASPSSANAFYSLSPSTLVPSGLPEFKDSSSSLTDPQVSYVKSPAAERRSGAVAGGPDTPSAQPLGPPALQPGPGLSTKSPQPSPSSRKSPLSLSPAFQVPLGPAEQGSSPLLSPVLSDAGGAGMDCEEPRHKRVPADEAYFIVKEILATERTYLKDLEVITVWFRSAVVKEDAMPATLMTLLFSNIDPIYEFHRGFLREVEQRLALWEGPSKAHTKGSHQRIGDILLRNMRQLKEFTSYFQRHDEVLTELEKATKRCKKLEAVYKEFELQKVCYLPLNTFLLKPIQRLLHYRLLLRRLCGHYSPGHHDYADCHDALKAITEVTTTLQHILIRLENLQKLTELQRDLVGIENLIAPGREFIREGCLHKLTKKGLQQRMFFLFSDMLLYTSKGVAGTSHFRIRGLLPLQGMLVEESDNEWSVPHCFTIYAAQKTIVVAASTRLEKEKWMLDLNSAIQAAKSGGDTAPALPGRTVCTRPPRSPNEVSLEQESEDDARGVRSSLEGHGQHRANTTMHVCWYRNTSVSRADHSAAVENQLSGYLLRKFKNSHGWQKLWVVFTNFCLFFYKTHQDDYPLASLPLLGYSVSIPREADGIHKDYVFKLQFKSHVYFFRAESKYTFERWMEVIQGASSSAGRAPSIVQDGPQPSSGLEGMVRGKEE
UniProt Q96NB1: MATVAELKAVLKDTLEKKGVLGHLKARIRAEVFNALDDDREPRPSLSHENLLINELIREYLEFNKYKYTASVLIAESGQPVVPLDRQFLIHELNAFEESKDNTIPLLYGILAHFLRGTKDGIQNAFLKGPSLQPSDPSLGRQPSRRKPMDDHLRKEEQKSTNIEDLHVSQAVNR

Tubastatin A = compound: CN1CCc2c(c3ccccc3n2Cc2ccc(C(=O)NO)cc2)C1 [Tubastatin A]
Summary of the method: as §1

[1] = compound: CNC(=O)C1=CC=CC=C1NC2=NC(=NC=C2Cl)NC3=C(C=C(C=C3)N4CCOCC4)OC
Summary of the method: as §1

defactinib = compound: CNC(=O)c1ccc(Nc2ncc(C(F)(F)F)c(NCc3nccnc3N(C)S(C)(=O)=O)n2)cc1 [defactinib]
Summary of the method: as §1

[2] = compound: CNc1nc(-c2ccc3c(N)n[nH]c3c2)cc(N2C[C@@H](C(=O)NC3CCCCC3)CC[C@H]2C)n1
Summary of the method: as §1

encorafenib = compound: COC(=O)N[C@@H](C)CNc1nccc(-c2cn(C(C)C)nc2-c2cc(Cl)cc(NS(C)(=O)=O)c2F)n1 [encorafenib]
Summary of the method: as §1

[3] = compound: COC(=O)[C@H](CCSC)NC(=O)C1=C(C=C(C=C1)NC[C@H](CS)N)C2=CC=CC=C2
Summary of the method: as §1

alisertib = compound: COc1cc(Nc2ncc3c(n2)-c2ccc(Cl)cc2C(c2c(F)cccc2OC)=NC3)ccc1C(=O)O [alisertib]
Summary of the method: as §1

[4] = compound: COc1cc2nc(-c3cc(F)ccc3O)nc(N[C@@H]3CNC[C@H]3C(C)(C)O)c2cc1OC
Summary of the method: as §1

gefitinib = compound: COc1cc2ncnc(Nc3ccc(F)c(Cl)c3)c2cc1OCCCN1CCOCC1 [gefitinib]
Summary of the method: as §1

Measured: log2 fold change

FIGNL1 (UniProt Q6PIW4)
inactive: alvocidib -0.018 | Tubastatin A -0.189 | [1] 0.014 | defactinib 0.05 | [2] -0.018 | encorafenib 0.041 | [3] 0.069 | alisertib -0.003 | [4] 0.005 | gefitinib 0.01

FKBP2 (UniProt P26885)
inactive: alvocidib 0.035 | Tubastatin A 0.038 | [1] 0.012 | defactinib 0.018 | [2] 0.015 | encorafenib -0.015 | [3] 0.002 | alisertib -0.033 | [4] -0.018 | gefitinib 0.018

FBXO22 (UniProt Q8NEZ5)
inactive: alvocidib -0.027 | Tubastatin A -0.002 | [1] -0.074 | defactinib 0.01 | [2] -0.004 | encorafenib -0.014 | [3] -0.006 | alisertib 0.034 | [4] 0.013 | gefitinib 0.017

FBXL20 (UniProt Q96IG2)
inactive: alvocidib -0.065 | Tubastatin A 0.03 | [1] -0.013 | defactinib 0.006 | [2] -0.017 | encorafenib 0.042 | [3] -0.151 | alisertib -0.033 | [4] 0.067 | gefitinib 0.06

FEM1B (UniProt Q9UK73)
inactive: alvocidib -0.089 | Tubastatin A 0.023 | [1] 0.058 | defactinib 0.028 | [2] 0.02 | encorafenib 0.044 | [3] -0.008 | alisertib 0.015 | [4] 0.321 | gefitinib 0.02

FN1 (UniProt P02751)
inactive: alvocidib -0.08 | Tubastatin A 0.06 | [1] 0.012 | defactinib 0.03 | [2] 0.019 | encorafenib 0.023 | [3] 0.006 | alisertib -0.053 | [4] 0.001 | gefitinib 0.067

FAM98C (UniProt Q17RN3)
inactive: alvocidib -0.137 | Tubastatin A -0.031 | [1] 0.259 | defactinib -0.059 | [2] 0.087 | encorafenib -0.022 | [3] 0.107 | alisertib -0.004 | [4] -0.183 | gefitinib 0.085

FKBP4 (UniProt Q02790)
inactive: alvocidib 0.017 | Tubastatin A 0.01 | [1] -0.033 | defactinib -0.013 | [2] -0.011 | encorafenib -0.021 | [3] 0.011 | alisertib -0.005 | [4] 0.002 | gefitinib -0.007

FAM89A (UniProt Q96GI7)
inactive: alvocidib -0.038 | Tubastatin A -0.019 | [1] -0.013 | defactinib -0.009 | [2] 0.039 | encorafenib 0.059 | [3] -0.283 | alisertib 0.032 | [4] 0.058 | gefitinib -0.024

Quoted from the results shown (2 entries):
FEM1B (UniProt Q9UK73)
inactive: alvocidib -0.089 | Tubastatin A 0.023 | [1] 0.058 | defactinib 0.028 | [2] 0.02 | encorafenib 0.044 | [3] -0.008 | alisertib 0.015 | [4] 0.321 | gefitinib 0.02

FN1 (UniProt P02751)
inactive: alvocidib -0.08 | Tubastatin A 0.06 | [1] 0.012 | defactinib 0.03 | [2] 0.019 | encorafenib 0.023 | [3] 0.006 | alisertib -0.053 | [4] 0.001 | gefitinib 0.067

The listing continues.

FASTKD2 (UniProt Q9NYY8)
inactive: alvocidib 0.014 | Tubastatin A -0.065 | [1] 0.016 | defactinib 0.056 | [2] 0.036 | encorafenib -0.016 | [3] -0.004 | alisertib 0.021 | [4] -0.033 | gefitinib 0.021

FARP2 (UniProt O94887)
inactive: alvocidib -0.113 | Tubastatin A -0.05 | [1] -0.104 | [2] 0.1 | alisertib -0.037 | [4] -0.077 | gefitinib -0.021

FEN1 (UniProt I3L3E9)
inactive: alvocidib 0.017 | Tubastatin A -0.032 | defactinib 0.044 | encorafenib 0.035 | [3] -0.05 | alisertib 0.016 | [4] 0.003 | gefitinib 0.078

FOPNL (UniProt Q96NB1)
inactive: alvocidib -0.012 | Tubastatin A 0.073 | defactinib -0.081 | [2] -0.068 | encorafenib 0.057 | [3] 0.013 | alisertib -0.011 | [4] -0.046 | gefitinib -0.112
